Experimental data reported in the supplement of paper PMC8728848.
The list shows a part of the results.

What was measured:
Assay in all cases: glycan array binding signal (z-score within array); higher = stronger binding
Conditions in all cases: glycan notation: IUPAC condensed, linker removed
[1] = target: Gal(b1-3)[Fuc(a1-4)]GlcNAc
In short: (§1)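 Glycan array binding is given as a within-array Z-score, which can be read as non-binding when negative. The arrays, 3228 of them, came from the Consortium for Functional Glycomics database and were retained only where the protein sequence was available. Z-scores were averaged across arrays of the same protein sequence at different concentrations or buffers and across linkers.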

[2] = target: Gal(b1-3)[Fuc(a1-4)]GlcNAc(b1-2)Man(a1-3)[Gal(b1-3)[Fuc(a1-4)]GlcNAc(b1-2)Man(a1-6)]Man(b1-4)GlcNAc(b1-4)GlcNAc
In short: as §1

[3] = target: Gal(b1-3)[Fuc(a1-4)]GlcNAc(b1-2)Man(a1-3)[Gal(b1-3)[Fuc(a1-4)]GlcNAc(b1-2)Man(a1-6)]Man(b1-4)GlcNAc(b1-4)[Fuc(a1-6)]GlcNAc
In short: as §1

[4] = target: Gal(b1-3)[Fuc(a1-4)]GlcNAc(b1-3)Gal(b1-3)[Fuc(a1-4)]GlcNAc
In short: as §1

[5] = target: Gal(b1-3)[Fuc(a1-4)]GlcNAc(b1-3)Gal(b1-4)GlcNAc
In short: as §1

[6] = target: Gal(b1-3)[Fuc(a1-4)]GlcNAc(b1-3)Gal(b1-4)[Fuc(a1-3)]GlcNAc
In short: as §1

[7] = target: Gal(b1-3)[GlcNAc(b1-6)]GalNAc
In short: as §1

[8] = target: Gal(b1-3)[Neu5Ac(a2-6)]GalNAc
In short: as §1

[9] = target: Gal(b1-3)[Neu5Ac(a2-6)]GlcNAc(b1-6)Gal(b1-4)Glc
In short: as §1

[10] = target: Gal(b1-3)[Neu5Ac(b2-6)]GalNAc
In short: as §1

[11] = target: Gal(b1-4)GalNAc(a1-3)[Fuc(a1-2)]Gal(b1-4)GlcNAc
In short: as §1

[12] = target: Gal(b1-4)GalNAc(b1-3)[Fuc(a1-2)]Gal(b1-4)GlcNAc
In short: as §1

Gal(b1-4)Glc = target: Gal(b1-4)Glc
In short: as §1

Gal(b1-4)Glc6S = target: Gal(b1-4)Glc6S
In short: as §1

Gal(b1-4)GlcNAc = target: Gal(b1-4)GlcNAc
In short: as §1

[13] = target: Gal(b1-4)GlcNAc(a1-6)Gal(b1-4)GlcNAc
In short: as §1

[14] = target: Gal(b1-4)GlcNAc(b1-2)Man(a1-3)Man(b1-4)GlcNAc(b1-4)GlcNAc
In short: as §1

[15] = target: Gal(b1-4)GlcNAc(b1-2)Man(a1-3)[Gal(b1-4)GlcNAc(b1-2)Man(a1-6)]Man(b1-4)GlcNAc(b1-4)GlcNAc
In short: as §1

[16] = target: Gal(b1-4)GlcNAc(b1-2)Man(a1-3)[Gal(b1-4)GlcNAc(b1-2)Man(a1-6)]Man(b1-4)GlcNAc(b1-4)[Fuc(a1-6)]GlcNAc
In short: as §1

[17] = target: Gal(b1-4)GlcNAc(b1-2)Man(a1-3)[GlcNAc(b1-2)Man(a1-6)]Man(b1-4)GlcNAc(b1-4)GlcNAc
In short: as §1

[18] = target: Gal(b1-4)GlcNAc(b1-2)Man(a1-3)[Man(a1-6)]Man(b1-4)GlcNAc(b1-4)GlcNAc
In short: as §1

[19] = target: Gal(b1-4)GlcNAc(b1-2)Man(a1-6)Man(b1-4)GlcNAc(b1-4)GlcNAc
In short: as §1

[20] = target: Gal(b1-4)GlcNAc(b1-2)Man(a1-6)[GlcNAc(b1-2)Man(a1-3)]Man(b1-4)GlcNAc(b1-4)GlcNAc
In short: as §1

[21] = target: Gal(b1-4)GlcNAc(b1-2)Man(a1-6)[Man(a1-3)]Man(b1-4)GlcNAc(b1-4)GlcNAc
In short: as §1

[22] = target: Gal(b1-4)GlcNAc(b1-2)[Gal(b1-4)GlcNAc(b1-4)]Man(a1-3)[Gal(b1-4)GlcNAc(b1-2)Man(a1-6)]Man(b1-4)GlcNAc(b1-4)GlcNAc
In short: as §1

[23] = target: Gal(b1-4)GlcNAc(b1-2)[Gal(b1-4)GlcNAc(b1-4)]Man(a1-3)[Gal(b1-4)GlcNAc(b1-2)[Gal(b1-4)GlcNAc(b1-6)]Man(a1-6)]Man(b1-4)GlcNAc(b1-4)GlcNAc
In short: as §1

[24] = target: Gal(b1-4)GlcNAc(b1-3)Gal(b1-3)GlcNAc
In short: as §1

[25] = target: Gal(b1-4)GlcNAc(b1-3)Gal(b1-4)Glc
In short: as §1

[26] = target: Gal(b1-4)GlcNAc(b1-3)Gal(b1-4)GlcNAc
In short: as §1

[27] = target: Gal(b1-4)GlcNAc(b1-3)Gal(b1-4)GlcNAc(b1-3)Gal(b1-4)GlcNAc
In short: as §1

[28] = target: Gal(b1-4)GlcNAc(b1-3)Gal(b1-4)[Fuc(a1-3)]GlcNAc(b1-3)Gal(b1-4)[Fuc(a1-3)]GlcNAc
In short: as §1

[29] = target: Gal(b1-4)GlcNAc(b1-3)GalNAc
In short: as §1

[30] = target: Gal(b1-4)GlcNAc(b1-3)[Gal(b1-4)GlcNAc(b1-6)]Gal(b1-4)GlcNAc
In short: as §1

[31] = target: Gal(b1-4)GlcNAc(b1-3)[Gal(b1-4)GlcNAc(b1-6)]GalNAc
In short: as §1

[32] = target: Gal(b1-4)GlcNAc(b1-3)[GlcNAc(b1-6)]Gal(b1-4)GlcNAc
In short: as §1

[33] = target: Gal(b1-4)GlcNAc(b1-6)Gal(b1-4)GlcNAc
In short: as §1

[34] = target: Gal(b1-4)GlcNAc(b1-6)GalNAc
In short: as §1

B1: PEB1 (Campylobacter jejuni), Q0P9X8 (protein)
chain: MVFRKSLLKLAVFALGACVAFSNANAAEGKLESIKSKGQLIVGVKNDVPHYALLDQATGEIKGFEVDVAKLLAKSILGDDKKIKLVAVNAKTRGPLLDNGSVDAVIATFTITPERKRIYNFSEPYYQDAIGLLVLKEKKYKSLADMKGANIGVAQAATTKKAIGEAAKKIGIDVKFSEFPDYPSIKAALDAKRVDAFSVDKSILLGYVDDKSEILPDSFEPQSYGIVTKKDDPAFAKYVDDFVKEHKNEIDALAKKWGL
- glycan array binding signal (z-score) [1]: 0.13
- glycan array binding signal (z-score) [2]: 4.54
- glycan array binding signal (z-score) [3]: -0.092
- glycan array binding signal (z-score) [4]: -0.144
- glycan array binding signal (z-score) [5]: -0.327
- glycan array binding signal (z-score) [6]: -0.196
- glycan array binding signal (z-score) [7]: -1.2
- glycan array binding signal (z-score) [8]: -0.718
- glycan array binding signal (z-score) [9]: -0.094
- glycan array binding signal (z-score) [10]: -1.04
- glycan array binding signal (z-score) [11]: 0.129
- glycan array binding signal (z-score) [12]: 0.322
- glycan array binding signal (z-score) (Gal(b1-4)Glc): 0.067
- glycan array binding signal (z-score) (Gal(b1-4)Glc6S): 0.229
- glycan array binding signal (z-score) (Gal(b1-4)GlcNAc): -0.159
- glycan array binding signal (z-score) [13]: -0.863
- glycan array binding signal (z-score) [14]: -0.553
- glycan array binding signal (z-score) [15]: -0.123
- glycan array binding signal (z-score) [16]: 0.818
- glycan array binding signal (z-score) [17]: 0.41
- glycan array binding signal (z-score) [18]: -0.385
- glycan array binding signal (z-score) [19]: -0.028
- glycan array binding signal (z-score) [20]: -0.568
- glycan array binding signal (z-score) [21]: -1.07
- glycan array binding signal (z-score) [22]: 0.759
- glycan array binding signal (z-score) [23]: 0.649
- glycan array binding signal (z-score) [24]: 0.014
- glycan array binding signal (z-score) [25]: -0.613
- glycan array binding signal (z-score) [26]: 0.03
- glycan array binding signal (z-score) [27]: 0.018
- glycan array binding signal (z-score) [28]: -0.999
- glycan array binding signal (z-score) [29]: -0.743
- glycan array binding signal (z-score) [30]: -0.728
- glycan array binding signal (z-score) [31]: 0.006
- glycan array binding signal (z-score) [32]: 0.192
- glycan array binding signal (z-score) [33]: -1.39
- glycan array binding signal (z-score) [34]: 0.425
